Source: article doi:10.1101/2025.05.30.657104
Results are given in words; binding and its absence hold for the method and conditions named. Binding seen in cells or lysates may run through a third protein. Some binding calls cover weakened binding; strength is not graded here.

Sequences of proteins named here, by UniProt entry; tags and fusion partners are left off.
UniProt P10644: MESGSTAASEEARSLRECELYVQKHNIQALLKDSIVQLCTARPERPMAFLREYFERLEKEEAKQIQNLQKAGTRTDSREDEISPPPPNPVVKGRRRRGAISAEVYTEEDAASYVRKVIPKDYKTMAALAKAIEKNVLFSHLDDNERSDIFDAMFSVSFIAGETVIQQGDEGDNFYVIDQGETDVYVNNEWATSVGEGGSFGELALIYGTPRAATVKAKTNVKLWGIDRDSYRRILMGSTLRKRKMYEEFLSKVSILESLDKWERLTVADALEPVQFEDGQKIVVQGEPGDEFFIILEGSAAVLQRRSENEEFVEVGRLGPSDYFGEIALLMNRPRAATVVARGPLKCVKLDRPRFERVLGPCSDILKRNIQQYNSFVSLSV

How the values were obtained:
[1] = biological target: Protein kinase C alpha (PKCα) WT (human) (UniProt P17252); test: co-IP
[2] = biological target: Protein kinase C beta II (PKCβII) WT, Rluc PCA reporter (UniProt P05771); test: split reporter
[3] = biological target: PKA RIα, Rluc PCA reporter (UniProt P10644); test: split reporter
[4] = biological target: Protein kinase C alpha D463H (PKCα_(D463H)) (human) (UniProt P17252); test: co-IP

Question: How did the binding [1] turn out when “Protein kinase C alpha D463H (PKCα_(D463H)) (from UniProt P17252 1-672) (enzyme)” was run?
Answer: binds

Question: “Protein kinase C beta II (PKCβII) WT, Rluc PCA reporter (from UniProt P05771-2 1-673) (enzyme)” was tested. Which binding [2] did it give?
Answer: binds

Question: And the binding [3]?
Answer: binds weakly

Question: Which binding [4] does the source give for “Protein kinase C alpha (PKCα) WT (from UniProt P17252 1-672) (enzyme)” here?
Answer: binds
